Values from PubChem BioAssay AID1224826 (NIAID, 2016)
The whole screen tested about 17,000 reagents; below is a part drawn at random. About 1,110 of all reagents (6.6%) were called active. 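Active means lowered or raised reporter signal; replicate intensities are raw and not normalised per plate.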 Entries without a mark were called inactive. Not all columns of the deposit are shown. Reagent sequences are not shown.

- Purpose: 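Knock-downs that raise or lower Tnf reporter signal after endotoxin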 (primary screen)
- System: RAW264.7 G9 macrophages from mouse bearing reporters for p65 (GFP) and the Tnf promoter (mCherry)
- Knock-down reagent: siRNA pool against mouse genes, 100 nM
- Time to read-out: 16 h of LPS stimulation, after 2 days of siRNA transfection
- Challenge: bacterial lipopolysaccharide (Salmonella minnesota R595), 10 ng/ml
- Measured: 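Nuclear mCherry signal of the Tnf promoter reporter measured by imaging after background removal, scaled to each plate median and turned into robust z-scores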
- Scale: Tnf reporter robust z-score: higher = stronger Tnf promoter reporter signal after LPS; Tnf reporter intensity: higher = stronger Tnf promoter reporter signal
- Call rule: 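a well counts as active at a score of -1.3 or below (Tlr4 knock-down control median) or above 3 (raised signal); controls and wells holding fewer than 50 cells are excluded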
- Meaning of the calls: active = Tnf reporter clearly lowered or raised; inactive = no clear change in Tnf reporter

no.	gene	Tnf reporter robust z-score	fewer than 50 cells in well	Tnf reporter intensity, replicate 1
1	Vmn1r195 (GeneID 171257)	0.22	enough cells in well	125
2	Skint2 (GeneID 329919)	-0.54	enough cells in well	142
3	Ptprj (GeneID 19271)	0.45	enough cells in well	253
4	Has1 (GeneID 15116)	0.66	enough cells in well	329
5	9630028B13Rik (GeneID 319562)	2.89	enough cells in well	311
6	Pcdhga6 (GeneID 93714)	-0.32	enough cells in well	136
7	Bud13 (GeneID 215051)	-1.51 (active)	enough cells in well	93.4
8	Gdpd5 (GeneID 233552)	-0.21	enough cells in well	207
9	Or11g24 (GeneID 258663)	5.64 (active)	enough cells in well	179
10	Nedd4 (GeneID 17999)	-1.81 (active)	enough cells in well	96.2
11	Rpn1 (GeneID 103963)	-1.36 (active)	enough cells in well	62.2
12	Ezh2 (GeneID 14056)	-1.22	enough cells in well	158
13	Chd3 (GeneID 216848)	-1.04	enough cells in well	116
14	Gphr (GeneID 67549)	-1.42 (active)	enough cells in well	82.2
15	Pcdhga8 (GeneID 93716)	0.83	enough cells in well	196
16	Tfcp2l1 (GeneID 81879)	0.51	enough cells in well	137
17	4930591A17Rik (GeneID 68175)	-0.03	enough cells in well	205
18	Gskip (GeneID 66787)	0.56	enough cells in well	206
19	Dhx38 (GeneID 64340)	-1.33 (active)	enough cells in well	83.8
20	Ssmem1 (GeneID 75647)	-0.42	enough cells in well	185
21	Adam10 (GeneID 11487)	-1.38 (active)	enough cells in well	89.5
22	Slitrk5 (GeneID 75409)		fewer than 50 cells per well; well left out of calls	34.8
23	9930038B18Rik (GeneID 319503)	-1.02	enough cells in well	119
24	Bahcc1 (GeneID 268515)	1.43	enough cells in well	6.36
25	Fpr-rs6 (GeneID 321020)	0.42	enough cells in well	256
26	Prr36 (GeneID 73072)	1.31	enough cells in well	284

7 entries from above, reduced to “Tnf reporter intensity, replicate 1”:
4930591A17Rik (GeneID 68175) = 205
Gskip (GeneID 66787) = 206
Dhx38 (GeneID 64340) = 83.8 (active)
Ssmem1 (GeneID 75647) = 185
Adam10 (GeneID 11487) = 89.5 (active)
Slitrk5 (GeneID 75409) = 34.8
9930038B18Rik (GeneID 319503) = 119

The list goes on.
no.	gene	Tnf reporter robust z-score	fewer than 50 cells in well	Tnf reporter intensity, replicate 1
27	Zfp879 (GeneID 214779)	-0.12	enough cells in well	182
28	Ubl4b (GeneID 67591)		fewer than 50 cells per well; well left out of calls	223
29	Hif1a (GeneID 15251)	-0.93	enough cells in well	186
30	Kbtbd3 (GeneID 69149)	-0.76	enough cells in well	143
31	Bst2 (GeneID 69550)	-0.6	enough cells in well	141
32	Cyp7b1 (GeneID 13123)	0.17	enough cells in well	220
33	Kat6b (GeneID 54169)	-1.82 (active)	enough cells in well	89.7
34	Olr1 (GeneID 108078)	-0.25	enough cells in well	244
35	Fhl4 (GeneID 14202)	-0.32	enough cells in well	206
36	Adam1b (GeneID 280667)	1.64	enough cells in well	358
37	Or10al7 (GeneID 258324)	-0.33	enough cells in well	164
38	Or2y8 (GeneID 211472)	0.21	enough cells in well	209
39	Tas2r108 (GeneID 57253)	-0.56	enough cells in well	252
40	D930020B18Rik (GeneID 216393)	-1.64 (active)	enough cells in well	66.6
41	Zswim1 (GeneID 71971)	-1.09	enough cells in well	84.5
42	Glul (GeneID 14645)	-1.88 (active)	enough cells in well	94
43	Col4a1 (GeneID 12826)	0.04	enough cells in well	245
44	Kif13a (GeneID 16553)	-0.42	enough cells in well	187
45	Phospho1 (GeneID 237928)	-0.84	enough cells in well	176
46	Phospho2 (GeneID 73373)	1.07	enough cells in well	288
47	Plxnb2 (GeneID 140570)		fewer than 50 cells per well; well left out of calls	121
48	Ikzf1 (GeneID 22778)	-1.92 (active)	enough cells in well	45.2
49	Or8s5 (GeneID 258278)	0.67	enough cells in well	216
50	Adss1 (GeneID 11565)	-0.96	enough cells in well	167
51	Tmem41b (GeneID 233724)	1.01	enough cells in well	258
52	B3gnt9 (GeneID 97440)	0.88	enough cells in well	213
53	Epb41l4b (GeneID 54357)	0.24	enough cells in well	254
54	Tmem150cos (GeneID 76003)	0.16	enough cells in well	176
55	Sh2d3c (GeneID 27387)	-0.17	enough cells in well	255
56	Slpi (GeneID 20568)	-0.61	enough cells in well	186
57	Tgm6 (GeneID 241636)	1.35	enough cells in well	261
58	Vmn1r45 (GeneID 22297)	0.48	enough cells in well	124
